Assay results published in patent publication US12247972B2 (priority 2018, dated 2025).

Tested on: CHO cells transiently expressing SCN5A (Nav1.5), CACNα1C (Cav1.2), KCNH2 and ChRWR

COC(=O)C1=C(C)NC(C)=C(C(=O)OC)C1c1ccccc1[N+](=O)[O-] [Nifedipine]
effect on action potential (calcium channel suppression): decreased the amplitude of action potential
